# Data: the supplement of paper PMC8728848
# The list shows a part of the results.
# B1: SJCP1084 (Schistosoma japonicum) (protein)
# chain: MRIINLVIISTALLLINLLQTKSQANGEDTKNGTPDDPGLTKSTELKVEVQALLKDKKTNMRVKWNENLLDNTKPEYHNLRDEACELLLQIVRSVVPLSQDDGECKDVTFTKYVVGTKDGAVNVKLTITFKDSVAINQKPMDLKLKLENDFKNLQSESTLKATKPTFTVKVEKRLIPISKPQTTPPTTAKNDASKENVGDIGGEDSTVPTAAPATAASANEEKDEGDKDNKDSQHPNVLTSNVNDRNLIIALVALMILAIGVALTAAVKQR
# Columns and labels:
# Experiment in all cases: glycan array binding signal (z-score within array); higher = stronger binding
# Settings in all cases: glycan notation: IUPAC condensed, linker removed
# Gal3S6S(b1-4)GlcNAc = molecular target: Gal3S6S(b1-4)GlcNAc
# In short: (§1)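 Arrays were curated from the Consortium for Functional Glycomics database, 3228 in total, and kept only where the protein sequence was available. Binding is expressed as a within-array Z-score. This score was averaged across arrays of the same protein sequence at different concentrations or buffers and across linkers, and negative values can be read as non-binding.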
# Gal3S6S(b1-4)GlcNAc6S = molecular target: Gal3S6S(b1-4)GlcNAc6S
# In short: as §1
# Gal4S(b1-4)GlcNAc = molecular target: Gal4S(b1-4)GlcNAc
# In short: as §1
# Gal4S6S(b1-4)GlcNAc = molecular target: Gal4S6S(b1-4)GlcNAc
# In short: as §1
# Gal6P(b1-4)GlcNAc = molecular target: Gal6P(b1-4)GlcNAc
# In short: as §1
# Gal6S(b1-3)GlcNAc = molecular target: Gal6S(b1-3)GlcNAc
# In short: as §1
# Gal6S(b1-3)GlcNAc6S = molecular target: Gal6S(b1-3)GlcNAc6S
# In short: as §1
# Gal6S(b1-4)Glc = molecular target: Gal6S(b1-4)Glc
# In short: as §1
# Gal6S(b1-4)Glc6S = molecular target: Gal6S(b1-4)Glc6S
# In short: as §1
# Gal6S(b1-4)GlcNAc = molecular target: Gal6S(b1-4)GlcNAc
# In short: as §1
# Gal6S(b1-4)GlcNAc6S = molecular target: Gal6S(b1-4)GlcNAc6S
# In short: as §1
# GalNAc(a1-3)Gal = molecular target: GalNAc(a1-3)Gal
# In short: as §1
# GalNAc(a1-3)GalNAc = molecular target: GalNAc(a1-3)GalNAc
# In short: as §1
# [1] = molecular target: GalNAc(a1-3)GalNAc(b1-3)Gal(a1-4)Gal(b1-4)Glc
# In short: as §1
# [2] = molecular target: GalNAc(a1-3)GalNAc(b1-3)Gal(a1-4)Gal(b1-4)GlcNAc
# In short: as §1
# GalNAc(b1-3)Gal = molecular target: GalNAc(b1-3)Gal
# In short: as §1
# [3] = molecular target: GalNAc(b1-3)Gal(a1-4)Gal(b1-4)GlcNAc
# In short: as §1
# [4] = molecular target: GalNAc(b1-3)Gal(a1-4)Gal(b1-4)GlcNAc(b1-3)Gal(b1-4)Glc
# In short: as §1
# [5] = molecular target: GalNAc(b1-3)Gal(a1-6)Gal(b1-4)Glc
# In short: as §1
# GalNAc(b1-3)GalNAc = molecular target: GalNAc(b1-3)GalNAc
# In short: as §1
# GalNAc(b1-3)GlcNAc = molecular target: GalNAc(b1-3)GlcNAc
# In short: as §1
# GalNAc(b1-4)Gal(b1-4)Glc = molecular target: GalNAc(b1-4)Gal(b1-4)Glc
# In short: as §1
# GalNAc(b1-4)GlcNAc = molecular target: GalNAc(b1-4)GlcNAc
# In short: as §1
# [6] = molecular target: GalNAc(b1-4)GlcNAc(b1-2)Man
# In short: as §1
# [7] = molecular target: GalNAc(b1-4)GlcNAc(b1-2)Man(a1-3)[GalNAc(b1-4)GlcNAc(b1-2)Man(a1-6)]Man(b1-4)GlcNAc(b1-4)GlcNAc
# In short: as §1
# [8] = molecular target: GalNAc(b1-4)GlcNAc(b1-3)GalNAc(b1-4)GlcNAc
# In short: as §1
# GalNAc(b1-4)GlcNAc6S = molecular target: GalNAc(b1-4)GlcNAc6S
# In short: as §1
# GalNAc(b1-6)GalNAc = molecular target: GalNAc(b1-6)GalNAc
# In short: as §1
# GalNAc3S(b1-4)GlcNAc = molecular target: GalNAc3S(b1-4)GlcNAc
# In short: as §1
# GalNAc3S(b1-4)GlcNAc3S = molecular target: GalNAc3S(b1-4)GlcNAc3S
# In short: as §1
# [9] = molecular target: GalNAc3S(b1-4)[Fuc(a1-3)]GlcNAc
# In short: as §1
# GalNAc4S6S(b1-4)GlcNAc = molecular target: GalNAc4S6S(b1-4)GlcNAc
# In short: as §1
# GalNAc6S(b1-4)GlcNAc = molecular target: GalNAc6S(b1-4)GlcNAc
# In short: as §1
# Glc(a1-4)Glc = molecular target: Glc(a1-4)Glc
# In short: as §1
# [10] = molecular target: Glc(a1-4)Glc(a1-4)Glc(a1-4)Glc
# In short: as §1
# Glc(a1-6)Glc(a1-6)Glc = molecular target: Glc(a1-6)Glc(a1-6)Glc
# In short: as §1
# [11] = molecular target: Glc(a1-6)Glc(a1-6)Glc(a1-6)Glc
# In short: as §1
# Glc(b1-4)Glc = molecular target: Glc(b1-4)Glc
# In short: as §1
binder,measurement,setting,value
B1,glycan array binding signal (z-score),Gal3S6S(b1-4)GlcNAc,0.244
same,glycan array binding signal (z-score),Gal3S6S(b1-4)GlcNAc6S,0.049
same,glycan array binding signal (z-score),Gal4S(b1-4)GlcNAc,1.12
same,glycan array binding signal (z-score),Gal4S6S(b1-4)GlcNAc,-0.509
same,glycan array binding signal (z-score),Gal6P(b1-4)GlcNAc,-0.319
same,glycan array binding signal (z-score),Gal6S(b1-3)GlcNAc,0.36
same,glycan array binding signal (z-score),Gal6S(b1-3)GlcNAc6S,1.63
same,glycan array binding signal (z-score),Gal6S(b1-4)Glc,-0.09
same,glycan array binding signal (z-score),Gal6S(b1-4)Glc6S,0.296
same,glycan array binding signal (z-score),Gal6S(b1-4)GlcNAc,0.199
same,glycan array binding signal (z-score),Gal6S(b1-4)GlcNAc6S,-0.044
same,glycan array binding signal (z-score),GalNAc(a1-3)Gal,-1.11
same,glycan array binding signal (z-score),GalNAc(a1-3)GalNAc,0.379
same,glycan array binding signal (z-score),[1],-1.12
same,glycan array binding signal (z-score),[2],-0.298
same,glycan array binding signal (z-score),GalNAc(b1-3)Gal,-0.955
same,glycan array binding signal (z-score),[3],0.632
same,glycan array binding signal (z-score),[4],-0.671
same,glycan array binding signal (z-score),[5],-0.545
same,glycan array binding signal (z-score),GalNAc(b1-3)GalNAc,-0.527
same,glycan array binding signal (z-score),GalNAc(b1-3)GlcNAc,-0.694
same,glycan array binding signal (z-score),GalNAc(b1-4)Gal(b1-4)Glc,0.083
same,glycan array binding signal (z-score),GalNAc(b1-4)GlcNAc,1.94
same,glycan array binding signal (z-score),[6],-0.37
same,glycan array binding signal (z-score),[7],0.187
same,glycan array binding signal (z-score),[8],1.08
same,glycan array binding signal (z-score),GalNAc(b1-4)GlcNAc6S,0.186
same,glycan array binding signal (z-score),GalNAc(b1-6)GalNAc,-1.19
same,glycan array binding signal (z-score),GalNAc3S(b1-4)GlcNAc,-0.158
same,glycan array binding signal (z-score),GalNAc3S(b1-4)GlcNAc3S,0.188
same,glycan array binding signal (z-score),[9],-1.11
same,glycan array binding signal (z-score),GalNAc4S6S(b1-4)GlcNAc,-0.216
same,glycan array binding signal (z-score),GalNAc6S(b1-4)GlcNAc,-0.739
same,glycan array binding signal (z-score),Glc(a1-4)Glc,-0.473
same,glycan array binding signal (z-score),[10],-0.793
same,glycan array binding signal (z-score),Glc(a1-6)Glc(a1-6)Glc,-0.059
same,glycan array binding signal (z-score),[11],0.019
same,glycan array binding signal (z-score),Glc(b1-4)Glc,-1.32

# At a glance, some entries already given.
binder,measurement,setting,value
B1,glycan array binding signal (z-score),Gal6S(b1-4)GlcNAc6S,-0.044
same,glycan array binding signal (z-score),GalNAc(a1-3)Gal,-1.11
